Patent publication EP4477666A1
Numbering of substitutions follows the chain as printed. No constants are given. Whether binding was seen depends on the method and setting. Some results given as binding are weak or reduced against the parent protein; the word gives no strength.

Amino acid sequences for entries named in this document (tags omitted). A change or cut given only in a name is not applied to a line headed by its entry. Residues count along the entry.
UniProt P35658: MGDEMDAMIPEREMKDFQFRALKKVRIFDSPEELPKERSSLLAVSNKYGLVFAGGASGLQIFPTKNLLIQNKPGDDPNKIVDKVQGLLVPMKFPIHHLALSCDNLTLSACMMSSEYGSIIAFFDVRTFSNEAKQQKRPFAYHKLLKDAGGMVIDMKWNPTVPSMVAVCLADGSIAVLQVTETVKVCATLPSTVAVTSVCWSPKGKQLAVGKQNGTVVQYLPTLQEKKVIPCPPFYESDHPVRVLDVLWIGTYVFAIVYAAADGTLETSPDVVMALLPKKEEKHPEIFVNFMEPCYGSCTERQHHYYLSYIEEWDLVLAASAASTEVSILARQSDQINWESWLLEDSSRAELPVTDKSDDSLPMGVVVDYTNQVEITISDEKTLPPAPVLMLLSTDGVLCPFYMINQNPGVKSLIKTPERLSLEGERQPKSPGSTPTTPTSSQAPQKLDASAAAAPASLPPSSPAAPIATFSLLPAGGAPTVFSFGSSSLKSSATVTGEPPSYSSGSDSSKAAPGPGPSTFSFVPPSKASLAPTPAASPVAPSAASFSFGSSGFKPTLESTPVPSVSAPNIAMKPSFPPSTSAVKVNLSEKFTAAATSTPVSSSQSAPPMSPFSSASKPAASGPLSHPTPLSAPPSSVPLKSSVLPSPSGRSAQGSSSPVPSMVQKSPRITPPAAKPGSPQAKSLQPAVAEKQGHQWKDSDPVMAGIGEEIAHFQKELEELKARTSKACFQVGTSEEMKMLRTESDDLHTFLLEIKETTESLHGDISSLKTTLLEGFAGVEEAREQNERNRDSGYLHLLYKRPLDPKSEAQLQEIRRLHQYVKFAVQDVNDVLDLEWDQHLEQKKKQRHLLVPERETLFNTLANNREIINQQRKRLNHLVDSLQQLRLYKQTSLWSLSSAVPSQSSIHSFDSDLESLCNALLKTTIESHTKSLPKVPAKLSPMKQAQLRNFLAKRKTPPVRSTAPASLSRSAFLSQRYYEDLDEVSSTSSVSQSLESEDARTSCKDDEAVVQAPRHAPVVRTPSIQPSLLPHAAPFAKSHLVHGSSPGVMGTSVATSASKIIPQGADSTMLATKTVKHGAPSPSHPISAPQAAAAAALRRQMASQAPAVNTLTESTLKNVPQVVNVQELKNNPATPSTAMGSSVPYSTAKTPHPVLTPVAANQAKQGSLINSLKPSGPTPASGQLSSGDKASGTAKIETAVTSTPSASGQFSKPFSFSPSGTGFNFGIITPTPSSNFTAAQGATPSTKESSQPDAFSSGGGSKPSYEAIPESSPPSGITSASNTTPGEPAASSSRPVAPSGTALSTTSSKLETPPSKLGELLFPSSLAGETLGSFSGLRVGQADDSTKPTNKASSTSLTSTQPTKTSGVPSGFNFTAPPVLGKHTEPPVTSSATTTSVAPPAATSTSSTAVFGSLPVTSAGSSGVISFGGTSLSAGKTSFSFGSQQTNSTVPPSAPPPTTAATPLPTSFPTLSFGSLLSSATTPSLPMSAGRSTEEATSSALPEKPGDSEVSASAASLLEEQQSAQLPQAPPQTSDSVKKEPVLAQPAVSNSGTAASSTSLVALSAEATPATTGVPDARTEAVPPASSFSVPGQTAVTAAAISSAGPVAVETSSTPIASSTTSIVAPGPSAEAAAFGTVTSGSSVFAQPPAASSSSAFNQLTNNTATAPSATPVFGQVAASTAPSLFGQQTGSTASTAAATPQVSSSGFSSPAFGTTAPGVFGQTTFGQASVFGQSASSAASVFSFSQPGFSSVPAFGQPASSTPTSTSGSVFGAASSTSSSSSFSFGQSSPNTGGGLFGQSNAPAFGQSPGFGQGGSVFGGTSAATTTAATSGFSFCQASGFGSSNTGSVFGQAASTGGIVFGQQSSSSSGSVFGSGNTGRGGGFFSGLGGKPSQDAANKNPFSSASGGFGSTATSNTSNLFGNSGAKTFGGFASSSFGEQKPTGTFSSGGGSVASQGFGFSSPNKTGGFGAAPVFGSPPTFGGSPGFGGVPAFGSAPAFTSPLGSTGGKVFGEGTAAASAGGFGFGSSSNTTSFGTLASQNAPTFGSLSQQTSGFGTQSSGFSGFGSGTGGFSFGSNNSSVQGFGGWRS
UniProt Q99567: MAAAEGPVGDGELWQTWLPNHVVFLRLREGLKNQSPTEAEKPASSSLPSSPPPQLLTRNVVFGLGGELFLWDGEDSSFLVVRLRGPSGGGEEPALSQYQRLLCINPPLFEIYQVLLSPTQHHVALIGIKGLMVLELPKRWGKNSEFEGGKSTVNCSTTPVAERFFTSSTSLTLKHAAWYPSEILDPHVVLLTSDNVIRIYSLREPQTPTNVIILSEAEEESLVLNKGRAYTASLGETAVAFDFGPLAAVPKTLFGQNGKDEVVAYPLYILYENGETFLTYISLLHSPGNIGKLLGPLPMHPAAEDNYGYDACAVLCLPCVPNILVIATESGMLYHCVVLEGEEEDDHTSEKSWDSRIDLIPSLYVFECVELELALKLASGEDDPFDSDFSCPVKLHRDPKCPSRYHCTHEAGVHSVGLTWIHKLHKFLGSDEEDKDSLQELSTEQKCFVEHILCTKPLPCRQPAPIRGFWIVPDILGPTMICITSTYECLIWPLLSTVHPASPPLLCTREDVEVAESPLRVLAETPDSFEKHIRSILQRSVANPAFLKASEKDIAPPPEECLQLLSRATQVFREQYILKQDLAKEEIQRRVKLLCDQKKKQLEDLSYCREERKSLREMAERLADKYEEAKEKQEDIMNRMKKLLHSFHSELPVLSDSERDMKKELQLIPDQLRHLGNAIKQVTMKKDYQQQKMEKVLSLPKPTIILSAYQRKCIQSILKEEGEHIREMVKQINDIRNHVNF
UniProt P37198: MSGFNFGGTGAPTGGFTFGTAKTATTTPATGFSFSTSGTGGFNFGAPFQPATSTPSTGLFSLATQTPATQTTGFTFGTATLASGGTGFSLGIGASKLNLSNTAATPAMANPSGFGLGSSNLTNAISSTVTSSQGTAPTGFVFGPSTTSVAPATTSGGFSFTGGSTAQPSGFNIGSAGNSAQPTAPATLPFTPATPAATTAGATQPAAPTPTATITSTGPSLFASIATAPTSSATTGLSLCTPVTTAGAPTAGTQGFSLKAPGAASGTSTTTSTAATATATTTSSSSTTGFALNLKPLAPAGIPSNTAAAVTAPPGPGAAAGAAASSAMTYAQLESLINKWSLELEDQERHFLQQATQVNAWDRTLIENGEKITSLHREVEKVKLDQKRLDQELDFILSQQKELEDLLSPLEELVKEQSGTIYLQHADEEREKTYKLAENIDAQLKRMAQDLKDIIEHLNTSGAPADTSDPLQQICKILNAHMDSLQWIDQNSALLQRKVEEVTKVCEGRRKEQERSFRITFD
UniProt P01870, residues 96-323: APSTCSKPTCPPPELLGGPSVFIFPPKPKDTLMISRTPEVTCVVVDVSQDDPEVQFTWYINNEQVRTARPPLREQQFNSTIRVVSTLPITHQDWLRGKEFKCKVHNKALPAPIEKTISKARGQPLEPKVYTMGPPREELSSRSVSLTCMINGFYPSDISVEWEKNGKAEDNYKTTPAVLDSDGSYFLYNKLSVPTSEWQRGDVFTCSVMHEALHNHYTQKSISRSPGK

Columns and labels:
[1] = target: T1, human Nup133 β-propeller (human) (UniProt Q8WUM0); assay: Table 1, target and cross-reactivity (immunofluorescence, Figure 1)
T1 sequence (looked up): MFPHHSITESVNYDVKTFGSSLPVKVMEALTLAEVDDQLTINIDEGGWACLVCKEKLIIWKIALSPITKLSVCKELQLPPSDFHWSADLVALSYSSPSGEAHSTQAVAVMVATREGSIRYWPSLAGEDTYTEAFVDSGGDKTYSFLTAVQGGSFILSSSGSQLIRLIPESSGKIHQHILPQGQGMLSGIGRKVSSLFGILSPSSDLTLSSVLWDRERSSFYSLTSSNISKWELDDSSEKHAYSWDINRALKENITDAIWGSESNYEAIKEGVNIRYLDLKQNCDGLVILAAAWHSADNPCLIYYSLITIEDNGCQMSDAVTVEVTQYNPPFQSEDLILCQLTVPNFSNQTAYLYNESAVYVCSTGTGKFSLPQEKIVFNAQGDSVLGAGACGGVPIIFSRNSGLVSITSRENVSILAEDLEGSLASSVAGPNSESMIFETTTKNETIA

[2] = target: T2, human Nup107-Nup133 α-solenoid (human) (UniProt P57740+Q8WUM0); assay: as above
T2 sequence (looked up) 1: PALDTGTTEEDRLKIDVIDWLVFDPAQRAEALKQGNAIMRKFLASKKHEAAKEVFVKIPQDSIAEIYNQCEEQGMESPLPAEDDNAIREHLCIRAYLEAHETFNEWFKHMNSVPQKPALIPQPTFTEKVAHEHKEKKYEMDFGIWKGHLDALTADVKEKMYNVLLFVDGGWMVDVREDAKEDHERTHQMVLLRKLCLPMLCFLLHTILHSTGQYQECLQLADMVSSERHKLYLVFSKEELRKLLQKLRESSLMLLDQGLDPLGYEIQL
T2 sequence (looked up) 2: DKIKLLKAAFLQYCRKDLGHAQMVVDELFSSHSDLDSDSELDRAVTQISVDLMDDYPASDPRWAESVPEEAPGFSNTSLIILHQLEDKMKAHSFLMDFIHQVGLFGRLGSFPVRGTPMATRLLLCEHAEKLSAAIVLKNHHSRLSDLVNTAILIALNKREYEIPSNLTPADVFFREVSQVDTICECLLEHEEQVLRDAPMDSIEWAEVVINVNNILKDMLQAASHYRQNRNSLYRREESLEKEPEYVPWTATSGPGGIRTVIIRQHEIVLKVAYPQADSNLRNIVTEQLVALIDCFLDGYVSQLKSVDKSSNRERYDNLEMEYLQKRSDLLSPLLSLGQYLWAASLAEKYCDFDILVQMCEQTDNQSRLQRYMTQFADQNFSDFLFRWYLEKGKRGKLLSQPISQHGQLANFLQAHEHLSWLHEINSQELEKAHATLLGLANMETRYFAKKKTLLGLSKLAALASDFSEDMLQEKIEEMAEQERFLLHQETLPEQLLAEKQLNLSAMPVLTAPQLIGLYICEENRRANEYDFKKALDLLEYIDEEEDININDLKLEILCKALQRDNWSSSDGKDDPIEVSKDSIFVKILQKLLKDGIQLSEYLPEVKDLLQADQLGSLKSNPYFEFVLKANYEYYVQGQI

[3] = target: human Nup214·Nup88·Nup62 coiled coil trimer (human) (UniProt P35658+Q99567+P37198); assay: as above
[4] = target: T3, human Nup93 α-solenoid (human) (UniProt Q8N1F7); assay: as above
T3 sequence (looked up): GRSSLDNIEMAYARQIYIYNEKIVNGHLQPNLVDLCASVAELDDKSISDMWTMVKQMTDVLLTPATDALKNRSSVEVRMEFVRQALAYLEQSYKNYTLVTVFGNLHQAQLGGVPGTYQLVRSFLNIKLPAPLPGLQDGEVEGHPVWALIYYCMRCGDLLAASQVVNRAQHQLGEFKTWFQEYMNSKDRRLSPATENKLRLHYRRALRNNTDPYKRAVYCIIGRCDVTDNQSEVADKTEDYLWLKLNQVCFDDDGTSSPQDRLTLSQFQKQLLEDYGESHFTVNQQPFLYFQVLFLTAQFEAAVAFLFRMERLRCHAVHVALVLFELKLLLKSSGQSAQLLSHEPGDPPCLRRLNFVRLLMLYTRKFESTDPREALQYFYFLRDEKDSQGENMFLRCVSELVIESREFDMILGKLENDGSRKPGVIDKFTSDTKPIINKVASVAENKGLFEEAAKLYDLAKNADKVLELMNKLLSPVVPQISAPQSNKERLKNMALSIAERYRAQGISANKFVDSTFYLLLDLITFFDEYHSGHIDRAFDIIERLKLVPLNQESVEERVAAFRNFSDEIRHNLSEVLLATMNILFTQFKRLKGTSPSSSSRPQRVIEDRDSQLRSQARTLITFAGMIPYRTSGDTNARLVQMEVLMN

[5] = target: T4, human Nup35 RRM domain (human) (UniProt Q8NFH5); assay: as above
T4 sequence (looked up): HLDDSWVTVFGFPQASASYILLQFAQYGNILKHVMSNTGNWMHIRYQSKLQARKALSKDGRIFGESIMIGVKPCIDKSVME

rabbit IgG Fc (rabbit) = rabbit IgG Fc (rabbit) (UniProt P01870); assay: Table 1, target and cross-reactivity; no assay described

B1: KG1D08 (VHH)
VHH: QVQLVESGGGLVQAGGSLRLSCAASGRSFRGNIMAWFRQTPGKERLFVASITGSGYTSYENSVKGRFTISRDSARDTVDLQMTTLAPEDTAVYYCAGRFRGGHNRMPDAYEYWGQGTQVTVSS
Question: For B1, which binding [1] is on record?
Answer: binds

B2: KG1C05 (VHH)
VHH: QVQLVESGGGLVQAGGSLRLACATSGILLSKAVMDWYRQIPGKQRELVARTGIRDSATYADFVKGRFTVSRENENNTVYLQMNSLQPEDAGLYVCKAAVTGVFGRLSEHWGQGTQVTVSS
Question: B2 was tested. Which binding [1] did it give?
Answer: binds

B3: KG2E04 (VHH)
VHH: QVQLVESGGGLVQAGGSLRLSCAASGRGFSGYTWGWFRQVPGKDRTFVAAMSWITGSTYYADSVKGRFTISGDNAKNTLLLQMDNLKPNDTAVYYCAARSKVSPDYDIWGQGTQVTVSS
Question: How did the binding [2] turn out when B3 was run?
Answer: binds

B4: KG2B08 (VHH)
VHH: B3 VHH with D44E, D84N, N89G, P104Y
Question: How did the binding [2] turn out when B4 was run?
Answer: binds

B5: KG2B12 (VHH)
VHH: B3 VHH with D44E, D84N, N89G, P104Y, Q114L
Question: With B5 as the binder, how does the binding [2] read?
Answer: binds

B6: Re3E01 (VHH)
VHH: QVQLVESGGGLVQPGGSLRLSCAASGFTFTDYLMAWYRQAPGNQRQLVAYITSDGSTVYASSARGRFTISRDNAKNTVTLQMNSLLLDDTAVYYCSAKSGLKDYYGQGTQVTVSS
Question: Which binding [3] does the source give for B6 here?
Answer: binds

B7: xhNup93-Nb3t (VHH)
VHH: QVQLVESGGGVVQTGDSLMLSCLFSGRPGRVFGHYLMGWFRQIPGKERDVVAAISFSGDPTYYADSVKGRATISRDNAKNTVYLQMNGLKSEDTAVYYCAADRLPYGDSWASKDEYDYWGQGTQVTVSS
Question: For B7, which binding [4] is on record?
Answer: binds

B8: xhNup35-Nb1t (VHH)
VHH: QVQLVESGGGLVQAGGSLRLSCVGTGNISSAYTMAWYRQAAGKEREVVAGILNGGSTHYADSVKGRFTISRDNAKNTVYLQMNSLQPEDTGVYCCHVVIESTRFVYDHYWGQGTRVTVSS
Question: How did the binding [5] turn out when B8 was run?
Answer: binds

B9: Nb116 (VHH)
VHH: QVQLVESGGGLVQPGGSLTLSCTVSRIINWTRMGWSRTAPGKQREFVANIDPSGTTNYADFVKGRFAISVNNDKRTVFLQMNGLKPEDTAVYRCFTIEPDRGTNWGQGTQVTVSS
Question: Which binding (rabbit IgG Fc (rabbit)) does the source give for B9 here?
Answer: binds
